Binding data for 5 substances are collected here from article doi:10.1101/2025.01.29.635535.

Numbering of substitutions follows the chain as printed. Results are given in words; binding and its absence hold for the method and conditions named. Some binding calls cover weakened binding; strength is not graded here. For some of these results: Sequences can lack the tags named with a protein.

Holding throughout (experiment): non-reducing SDS-PAGE and Western blot
On the technique in general: A western blot detects proteins with antibodies after separation by electrophoresis.

The target in one experiment is T1, HsEDEM3 (human) (UniProt Q9BZQ6).
T1 sequence: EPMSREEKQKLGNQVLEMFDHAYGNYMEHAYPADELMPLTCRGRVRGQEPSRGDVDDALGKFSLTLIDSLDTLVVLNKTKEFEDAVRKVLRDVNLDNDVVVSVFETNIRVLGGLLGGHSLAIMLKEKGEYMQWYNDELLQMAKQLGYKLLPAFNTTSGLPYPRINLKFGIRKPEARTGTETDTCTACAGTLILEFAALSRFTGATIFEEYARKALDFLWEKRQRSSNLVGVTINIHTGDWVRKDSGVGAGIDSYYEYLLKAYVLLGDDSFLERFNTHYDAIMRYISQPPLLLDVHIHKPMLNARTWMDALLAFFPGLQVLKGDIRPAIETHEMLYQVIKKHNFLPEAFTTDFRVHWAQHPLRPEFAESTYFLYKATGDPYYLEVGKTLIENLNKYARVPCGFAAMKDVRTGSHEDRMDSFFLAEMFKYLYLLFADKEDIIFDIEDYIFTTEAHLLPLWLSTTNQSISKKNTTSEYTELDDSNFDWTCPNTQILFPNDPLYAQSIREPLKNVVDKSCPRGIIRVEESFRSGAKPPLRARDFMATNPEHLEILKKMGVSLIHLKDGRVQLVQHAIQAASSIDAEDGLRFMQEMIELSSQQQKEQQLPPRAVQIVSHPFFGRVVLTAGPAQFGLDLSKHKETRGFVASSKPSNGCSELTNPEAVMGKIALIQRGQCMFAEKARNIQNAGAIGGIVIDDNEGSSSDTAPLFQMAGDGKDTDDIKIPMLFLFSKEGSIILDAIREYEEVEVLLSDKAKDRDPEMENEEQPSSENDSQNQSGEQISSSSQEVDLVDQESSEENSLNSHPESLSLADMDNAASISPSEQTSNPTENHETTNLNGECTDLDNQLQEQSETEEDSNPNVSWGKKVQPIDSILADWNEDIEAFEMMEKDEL

Experiment [1] addresses T2, MmEDEM3-HA, wild type (Mus musculus) (UniProt Q2HXL6).
T2 sequence: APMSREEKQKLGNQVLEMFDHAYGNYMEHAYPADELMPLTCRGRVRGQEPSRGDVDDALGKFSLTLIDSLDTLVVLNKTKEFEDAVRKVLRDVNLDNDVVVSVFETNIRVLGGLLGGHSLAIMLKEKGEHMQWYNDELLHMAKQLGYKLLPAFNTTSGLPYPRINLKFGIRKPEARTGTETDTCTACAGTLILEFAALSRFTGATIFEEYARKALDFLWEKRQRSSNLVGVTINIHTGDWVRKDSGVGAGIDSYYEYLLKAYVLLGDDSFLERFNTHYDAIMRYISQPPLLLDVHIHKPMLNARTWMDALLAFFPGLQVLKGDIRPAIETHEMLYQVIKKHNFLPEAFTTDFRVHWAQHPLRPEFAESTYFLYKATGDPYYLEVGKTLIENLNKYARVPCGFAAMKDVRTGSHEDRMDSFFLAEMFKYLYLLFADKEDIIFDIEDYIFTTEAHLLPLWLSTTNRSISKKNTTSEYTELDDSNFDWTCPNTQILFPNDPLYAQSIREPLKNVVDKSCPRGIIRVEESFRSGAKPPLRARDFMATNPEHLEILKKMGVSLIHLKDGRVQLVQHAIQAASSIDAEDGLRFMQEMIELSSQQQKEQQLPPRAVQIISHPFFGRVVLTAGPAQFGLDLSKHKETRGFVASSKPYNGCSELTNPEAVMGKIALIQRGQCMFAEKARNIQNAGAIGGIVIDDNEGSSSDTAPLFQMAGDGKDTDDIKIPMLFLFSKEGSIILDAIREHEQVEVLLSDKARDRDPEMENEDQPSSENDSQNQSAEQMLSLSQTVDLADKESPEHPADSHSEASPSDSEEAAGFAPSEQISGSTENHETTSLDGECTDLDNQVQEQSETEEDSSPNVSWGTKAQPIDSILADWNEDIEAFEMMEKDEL

Experiment [2] addresses T3, MmEDEM3-HA C529S (Mus musculus) (UniProt Q2HXL6).
T3 sequence: T2 sequence with C487S

Experiment [3] deals with T4, MmEDEM3-HA C529S/C558S (Mus musculus) (UniProt Q2HXL6).
T4 sequence: T2 sequence with C487S, C516S

Experiment [4] concerns the target T5, MmEDEM3-HA C558S (Mus musculus) (UniProt Q2HXL6).
T5 sequence: T2 sequence with C516S

“HsERp46-FLAG C92A trapping mutant (from UniProt Q8NBS9 33-432) (enzyme)”: the binding entry (in the experiment with HsEDEM3 (human); in experiment [1]) was “binds” each time.

“HsERp46-FLAG C92A/C220A/C353A triple trapping mutant (from UniProt Q8NBS9 33-432) (enzyme)”: the binding result in experiment [2] and in experiment [3] was “binds” throughout.

Consider “HsERp46-FLAG C92A/C353A double trapping mutant (from UniProt Q8NBS9 33-432) (enzyme)”, for which the binding entry (with HsEDEM3 (human); in experiment [1]) was “binds” each time.

On to “HsERp46-FLAG C353A trapping mutant (from UniProt Q8NBS9 33-432) (enzyme)”, for which the binding result (with HsEDEM3 (human); in experiment [1]) was “binds” each time.

As for “HsERp46-FLAG, wild type (from UniProt Q8NBS9 33-432) (enzyme)”, the binding result (with HsEDEM3 (human); in experiment [2]; in experiment [3]; in experiment [4]; in experiment [1]) was “binds” throughout.
